doi:10.1101/2023.06.19.545643
No constants are given. Whether binding was seen depends on the method and setting. Binding seen in cells or lysates may run through a third protein. Some entries that bind do so weakly or less than the wild type.

Chains of the proteins cited; added tags and fusions are not shown.
UniProt Q6P4S6: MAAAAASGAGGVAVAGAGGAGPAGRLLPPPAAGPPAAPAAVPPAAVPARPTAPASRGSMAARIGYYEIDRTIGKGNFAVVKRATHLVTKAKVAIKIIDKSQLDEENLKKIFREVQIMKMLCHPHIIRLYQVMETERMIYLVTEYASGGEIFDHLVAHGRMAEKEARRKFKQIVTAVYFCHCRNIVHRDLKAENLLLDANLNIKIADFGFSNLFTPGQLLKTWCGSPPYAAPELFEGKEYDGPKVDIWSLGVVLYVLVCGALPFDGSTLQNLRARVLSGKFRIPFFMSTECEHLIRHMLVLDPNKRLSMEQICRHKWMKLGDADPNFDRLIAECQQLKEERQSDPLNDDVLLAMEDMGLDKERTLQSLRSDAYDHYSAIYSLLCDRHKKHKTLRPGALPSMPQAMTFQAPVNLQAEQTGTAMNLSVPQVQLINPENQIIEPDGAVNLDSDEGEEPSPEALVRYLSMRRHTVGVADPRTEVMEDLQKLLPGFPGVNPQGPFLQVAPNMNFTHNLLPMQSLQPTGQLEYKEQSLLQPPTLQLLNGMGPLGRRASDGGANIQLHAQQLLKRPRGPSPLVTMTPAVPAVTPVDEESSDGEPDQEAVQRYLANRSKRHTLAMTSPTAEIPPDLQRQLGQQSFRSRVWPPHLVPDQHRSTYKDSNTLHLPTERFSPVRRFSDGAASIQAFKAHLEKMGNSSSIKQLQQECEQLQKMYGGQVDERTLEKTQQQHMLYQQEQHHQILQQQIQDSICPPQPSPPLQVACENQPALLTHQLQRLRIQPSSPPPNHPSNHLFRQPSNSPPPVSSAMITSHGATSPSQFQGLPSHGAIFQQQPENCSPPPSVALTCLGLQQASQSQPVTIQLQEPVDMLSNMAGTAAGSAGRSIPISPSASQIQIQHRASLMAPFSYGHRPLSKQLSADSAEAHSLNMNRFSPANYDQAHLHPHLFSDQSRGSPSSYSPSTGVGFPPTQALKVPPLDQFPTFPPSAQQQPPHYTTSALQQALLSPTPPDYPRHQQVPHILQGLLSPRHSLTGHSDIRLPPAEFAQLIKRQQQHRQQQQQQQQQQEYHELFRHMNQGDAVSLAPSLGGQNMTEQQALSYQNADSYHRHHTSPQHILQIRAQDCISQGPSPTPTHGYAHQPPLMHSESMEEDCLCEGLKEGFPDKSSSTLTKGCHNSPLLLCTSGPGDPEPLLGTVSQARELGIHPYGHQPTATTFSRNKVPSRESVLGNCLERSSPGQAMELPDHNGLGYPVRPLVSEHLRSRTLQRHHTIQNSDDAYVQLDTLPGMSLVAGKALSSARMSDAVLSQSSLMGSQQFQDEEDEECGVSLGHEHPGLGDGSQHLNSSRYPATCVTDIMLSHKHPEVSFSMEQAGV

Assays:
[1] = molecular target: SIK3 (salt inducible kinase 3), endogenous, WT mouse brain (mouse (endogenous in mouse brain)) (UniProt Q6P4S6); assay: co-IP
[2] = molecular target: FLAG tagged SIK3 (UniProt Q6P4S6); assay: co-IP

| Substance | binding [1] | binding [2] |
| --- | --- | --- |
| PPP3CA, catalytic subunit of calcineurin (endogenous, mouse brain) (from UniProt P63328 1-521) (enzyme) | binds | – |
| HA tagged PPP3CA (from UniProt P63328 1-521) (enzyme) | – | binds |
